PubChem BioAssay AID1053208 | Peter MacCallum Cancer Centre, 2014
Assay: 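Genes whose silencing cuts survival of bone tumour cells only with doxorubicin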 (primary screen). Cells: mouse osteosarcoma cells, early-passage culture from an engineered mouse model of fibroblastic bone tumour. Reagents: siRNA pool against mouse genes, 40 nM. Duration: about 120 h (48 h before drug, then 72 h with drug). Challenge: doxorubicin 100 nM for 72 h, roughly 30-40% inhibitory dose. Measured: 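Viability read as ATP luminescence after 72 h of 100 nM doxorubicin or none, duplicate wells averaged, scaled to non-targeting siRNA, then expressed as robust z-scores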. Direction: viability z-score with doxorubicin and doxorubicin viability vs non-targeting: higher = more viable cells under doxorubicin; viability z-score without drug: higher = more viable cells with knock-down alone; z-score of drug to no-drug ratio: higher = less drug sensitisation by knock-down. Hit rule: 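Called active if knock-down leaves viability unchanged without drug (z within -2 to 2) but lowers it with doxorubicin (z at or under -2)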.
Shown is a random part of about 17,000 reagents. 788 of all reagents (4.7%) count as active. 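Calls rest on z-score classes alone; an extra cut-off of viability at most 70% of control was not applied to them.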 A number with no mark means an inactive call. The numbers tell different reagents against one gene apart. Some reagents were tested in more than one well and are listed for each.

no.	target	reagent no.	combined z-score class	viability z-score with doxorubicin	viability z-score without drug	z-score of drug to no-drug ratio	doxorubicin viability vs non-targeting
1	Bdkrb2	1	no change with or without drug	0.9	-0.51	1.46	1.02
2	Bdkrb2	1	no change with or without drug	-1.8	0	-1.8	0.78
3	Nr1i2	1	no change with or without drug	1.35	1.85	0.22	1.06
4	Mrps27	1	no change with or without drug	-1.57	-1.35	-0.67	0.8
5	Muc5b	1	no change with or without drug	-1.57	-1.18	-0.79	0.8
6	Fndc3a	1	no change with or without drug	-0.45	-0.84	0.22	0.9
7	Dhh	1	no change with or without drug	0.45	0.17	0.45	0.98
8	Wdr35	1	no change with or without drug	-0.11	0.17	-0.11	0.93
9	Vil1	1	no change with or without drug	0.67	0.17	0.67	1
10	Tram2	1	no change with or without drug	-1.12	1.18	-1.8	0.84
11	Stfa3	1	high cell count with and without drug	2.81	2.19	1.35	1.19
12	Phf23	1	no change with or without drug	0	0.51	-0.22	0.94
13	Cryge	1	no change with or without drug	0.67	1.18	0	1
14	Mknk2	1	high cell count with doxorubicin only	2.14	-0.84	3.15	1.13
15	Sp7	1	no change with or without drug	0.67	1.18	0	1
16	Acvrl1	1	high cell count without drug only	-0.45	2.7	-1.91	0.9
17	Idua	1	no change with or without drug	-0.34	0.17	-0.34	0.91
18	Flt3l	1	no change with or without drug	-1.35	0.34	-1.46	0.82
19	Galnt9	1	no change with or without drug	-1.01	0.51	-1.24	0.85
20	Nr2f2	1	no change with or without drug	0.9	-0.17	1.24	1.02
21	Nr2f2	2	no change with or without drug	0.67	1.52	-0.22	1
22	Orai2	1	no change with or without drug	0.11	0.51	-0.11	0.95
23	Kcnc4	1	no change with or without drug	-0.45	-0.34	-0.11	0.9
24	Glipr1l2	1	no change with or without drug	0.45	0.84	0	0.98
25	Hhex	1	no change with or without drug	-0.45	-0.67	0.11	0.9
26	2510039O18Rik	1	no change with or without drug	0.9	0.84	0.45	1.02
27	Tmem106a	1	no change with or without drug	0.45	0.17	0.45	0.98
28	Psmc3	1	low cell count with and without drug	-6.41	-7.25	-3.04	0.37
29	Them6	1	low cell count with doxorubicin only (active)	-2.47	-1.18	-1.8	0.72
30	Srsf3	1	low cell count with and without drug	-2.92	-3.2	-1.01	0.68
31	Igbp1	1	no change with or without drug	-1.57	-0.67	-1.12	0.8
32	Cxadr	1	no change with or without drug	1.12	0.51	0.9	1.04
33	Zfp764	1	no change with or without drug	-0.45	0.51	-0.67	0.9
34	Hdgf	1	no change with or without drug	-0.45	0.34	-0.56	0.9

Reformatted: results already given.
{"target": "Psmc3", "reagent no.": 1, "combined z-score class": "low cell count with and without drug", "viability z-score with doxorubicin": -6.41, "viability z-score without drug": -7.25, "z-score of drug to no-drug ratio": -3.04, "doxorubicin viability vs non-targeting": 0.37}
{"target": "Them6", "reagent no.": 1, "combined z-score class": "low cell count with doxorubicin only (active)", "viability z-score with doxorubicin": -2.47, "viability z-score without drug": -1.18, "z-score of drug to no-drug ratio": -1.8, "doxorubicin viability vs non-targeting": 0.72}
{"target": "Srsf3", "reagent no.": 1, "combined z-score class": "low cell count with and without drug", "viability z-score with doxorubicin": -2.92, "viability z-score without drug": -3.2, "z-score of drug to no-drug ratio": -1.01, "doxorubicin viability vs non-targeting": 0.68}
{"target": "Igbp1", "reagent no.": 1, "combined z-score class": "no change with or without drug", "viability z-score with doxorubicin": -1.57, "viability z-score without drug": -0.67, "z-score of drug to no-drug ratio": -1.12, "doxorubicin viability vs non-targeting": 0.8}
{"target": "Cxadr", "reagent no.": 1, "combined z-score class": "no change with or without drug", "viability z-score with doxorubicin": 1.12, "viability z-score without drug": 0.51, "z-score of drug to no-drug ratio": 0.9, "doxorubicin viability vs non-targeting": 1.04}
{"target": "Zfp764", "reagent no.": 1, "combined z-score class": "no change with or without drug", "viability z-score with doxorubicin": -0.45, "viability z-score without drug": 0.51, "z-score of drug to no-drug ratio": -0.67, "doxorubicin viability vs non-targeting": 0.9}
